Patent US20260373156A1, “CANCER TREATMENTS USING MTA-COOPERATIVE PRMT5 INHIBITORS” (AMGEN INC., priority 2022, published 2026)

Assays:
[1] = system: UM-UC-3 cells; test: CellTiter-Glo viability and CalcuSyn synergy, PRMT5 inhibitor + sotorasib, 6 days; assay type: cell-based; conditions: Compound B 0.2916 μM + sotorasib 0.5 μM
Experimental: Bladder cancer cell lines (UM-UC-3) were treated with the combination of PRMT5 inhibitor (i.e., Compound B) and sotorasib for 6 days. […] Raw luminescent values were converted to fraction affected (Fa) with the following equation: […]
Synergy analysis was performed using the CalcuSyn software to determine CI scores based on the drug concentrations used and corresponding Fa values. Results are shown in Table 6 below. *CI Values (Calcusyn): Strong Synergism: 0.1-0.3; Synergism: 0.3-0.7; Moderate Synergism: 0.7-0.85; Slight Synergism: 0.85-0.9; Nearly Additive: 0.9-1.1.

[2] = system: MIAPACA2 cells; conditions: 150 nM Compound B + 50 nM sotorasib, over 8 days

For `Cc1cc2cc(C(=O)N(Cc3ccc(C(F)(F)F)cn3)[C@@H](C)c3ncccn3)ccc2nc1N` [Compound B], the “Combination Fa” value [1] was 0.7953, the “Computed CI value” [1] was 0.958 and the cell counts [2] was “significantly reduced pancreatic cancer (MIAPACA2) cell counts”.
